These are yes or no findings as the source states them, for the method shown. For some of these results: Binding calls can cover weak binding; strength is not graded here. Where a sequence is shown, tags or fusion partners need not be part of it.

By UniProt entry, the sequences of proteins in these tests, tags left out. Where a name states a change or a piece, a line headed by the entry shows the natural chain unless it says otherwise.
UniProt P32492: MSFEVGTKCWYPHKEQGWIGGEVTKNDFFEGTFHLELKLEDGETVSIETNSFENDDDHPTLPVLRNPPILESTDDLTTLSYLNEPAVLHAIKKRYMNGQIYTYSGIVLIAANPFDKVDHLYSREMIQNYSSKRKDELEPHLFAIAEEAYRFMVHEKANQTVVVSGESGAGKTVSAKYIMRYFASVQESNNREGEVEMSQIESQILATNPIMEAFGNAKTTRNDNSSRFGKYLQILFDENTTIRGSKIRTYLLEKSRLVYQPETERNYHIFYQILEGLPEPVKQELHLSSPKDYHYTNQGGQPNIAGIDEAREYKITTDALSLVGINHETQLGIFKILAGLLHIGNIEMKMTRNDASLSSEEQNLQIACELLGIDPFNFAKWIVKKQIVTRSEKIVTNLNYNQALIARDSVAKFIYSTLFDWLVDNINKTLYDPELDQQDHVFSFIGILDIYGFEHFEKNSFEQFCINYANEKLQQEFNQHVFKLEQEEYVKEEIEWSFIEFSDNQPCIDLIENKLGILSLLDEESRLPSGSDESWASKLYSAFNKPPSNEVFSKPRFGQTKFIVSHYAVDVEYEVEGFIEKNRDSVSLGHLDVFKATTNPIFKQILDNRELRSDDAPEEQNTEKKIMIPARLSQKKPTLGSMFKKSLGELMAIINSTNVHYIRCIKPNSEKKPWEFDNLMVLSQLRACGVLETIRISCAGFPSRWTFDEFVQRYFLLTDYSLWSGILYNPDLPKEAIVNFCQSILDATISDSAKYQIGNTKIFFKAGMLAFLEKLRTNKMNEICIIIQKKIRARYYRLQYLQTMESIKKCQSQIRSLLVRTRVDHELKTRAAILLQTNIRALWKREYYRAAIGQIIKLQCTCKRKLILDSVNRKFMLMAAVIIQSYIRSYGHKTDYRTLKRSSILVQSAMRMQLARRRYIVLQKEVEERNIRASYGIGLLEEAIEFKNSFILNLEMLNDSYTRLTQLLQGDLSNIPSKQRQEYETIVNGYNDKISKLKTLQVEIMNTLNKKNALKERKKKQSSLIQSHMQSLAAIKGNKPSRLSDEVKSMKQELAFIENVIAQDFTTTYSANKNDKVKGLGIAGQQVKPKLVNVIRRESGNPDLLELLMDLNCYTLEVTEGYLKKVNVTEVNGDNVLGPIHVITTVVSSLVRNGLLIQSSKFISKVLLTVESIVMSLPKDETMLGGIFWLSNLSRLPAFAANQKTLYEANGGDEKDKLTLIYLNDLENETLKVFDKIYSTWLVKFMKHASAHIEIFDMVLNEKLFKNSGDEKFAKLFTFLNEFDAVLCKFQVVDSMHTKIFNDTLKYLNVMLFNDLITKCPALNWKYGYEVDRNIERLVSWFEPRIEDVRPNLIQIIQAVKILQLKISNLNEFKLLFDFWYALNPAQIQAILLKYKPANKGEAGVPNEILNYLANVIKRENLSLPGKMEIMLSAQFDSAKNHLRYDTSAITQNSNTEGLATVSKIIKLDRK
UniProt P36068: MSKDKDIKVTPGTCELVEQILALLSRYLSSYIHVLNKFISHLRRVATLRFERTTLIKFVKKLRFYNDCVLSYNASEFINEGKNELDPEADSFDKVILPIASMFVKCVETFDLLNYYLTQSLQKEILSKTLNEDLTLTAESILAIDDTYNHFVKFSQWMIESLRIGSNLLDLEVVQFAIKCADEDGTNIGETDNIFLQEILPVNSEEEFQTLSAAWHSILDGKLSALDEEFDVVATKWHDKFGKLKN

From publication PMC3079584 come the findings set out here.

The target in test [1] is T1, Full-length His-She3p (Saccharomyces cerevisiae) (UniProt P38272).
T1 sequence: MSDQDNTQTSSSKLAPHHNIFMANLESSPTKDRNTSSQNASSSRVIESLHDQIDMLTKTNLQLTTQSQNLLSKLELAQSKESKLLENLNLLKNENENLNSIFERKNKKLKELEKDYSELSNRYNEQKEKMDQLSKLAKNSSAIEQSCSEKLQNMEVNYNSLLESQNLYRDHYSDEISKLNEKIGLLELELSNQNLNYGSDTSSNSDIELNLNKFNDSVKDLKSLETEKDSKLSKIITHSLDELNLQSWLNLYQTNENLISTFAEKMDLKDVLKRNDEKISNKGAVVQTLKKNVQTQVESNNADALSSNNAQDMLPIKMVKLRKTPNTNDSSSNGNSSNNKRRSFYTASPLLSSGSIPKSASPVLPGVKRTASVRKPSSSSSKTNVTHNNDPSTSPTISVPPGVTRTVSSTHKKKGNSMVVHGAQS
Description: SEC; analytical, Superose 6 10/300 GL, HNMD-buffer; 20 µM She2p (wild type or mutant), 30 µM She3p and 8.5 µM E3-118-tRNA preincubated 5 min at 20°C; fractions on SDS-PAGE and agarose gel; Myo4p tail added in Figure S3C; both purified.

The target in test [2] is T1, Full-length His-She3p (Saccharomyces cerevisiae). Description: condition: 20 µM She2p mutant, 30 µM She3p, 8.5 µM RNA; SEC; analytical, Superose 6 10/300 GL, HNMD-buffer; 20 µM She2p (wild type or mutant), 30 µM She3p and 8.5 µM E3-118-tRNA preincubated 5 min at 20°C; fractions on SDS-PAGE and agarose gel; Myo4p tail added in Figure S3C; both purified.
Test [3] has the same target. Description: pull-down; His-tagged She3p (full length, point mutants, or MBP-She3p fragment-His) on nickel sepharose, no RNA; 7.5–10 µM of each protein, HNMD-buffer (20 mM HEPES pH 7.8, 200 mM NaCl, 2 mM MgCl2, 2 mM DTT) with 30–50 mM imidazole, 30–60 min at 4°C; SDS-PAGE, Coomassie; both purified.
Test [4] has the same target. Description: SPR; Biacore 3000, CM-5 chip, She3p amine-coupled, She2p flowed over, HNMD-buffer; steady state, Langmuir isotherm; duplicates; both purified. (In general: In SPR one partner is held on a chip, and binding of the other changes the refractive index at the surface.)

Regarding “Myo4p tail (from UniProt P32492) (domain or fragment)”, the binding result in test [1] is reported as “binds”.
Turning to She2p (ΔhE) (from UniProt P36068), the binding result in test [2] is given as “no binding”; in test [3], “no binding (tested: 7.5–10 µM of each protein)”; in test [4], “no binding (tested: 150 µM)”.
